Assay results taken from article PMC5564588.
Results are given in words; binding and its absence hold for the method and conditions named. Binding seen in cells or lysates may run through a third protein. Some entries that bind do so weakly or less than the wild type.

The chains behind the UniProt entries cited, without tags or fusion partners. Residues count along the entry.
UniProt P16234, residues 24-1089: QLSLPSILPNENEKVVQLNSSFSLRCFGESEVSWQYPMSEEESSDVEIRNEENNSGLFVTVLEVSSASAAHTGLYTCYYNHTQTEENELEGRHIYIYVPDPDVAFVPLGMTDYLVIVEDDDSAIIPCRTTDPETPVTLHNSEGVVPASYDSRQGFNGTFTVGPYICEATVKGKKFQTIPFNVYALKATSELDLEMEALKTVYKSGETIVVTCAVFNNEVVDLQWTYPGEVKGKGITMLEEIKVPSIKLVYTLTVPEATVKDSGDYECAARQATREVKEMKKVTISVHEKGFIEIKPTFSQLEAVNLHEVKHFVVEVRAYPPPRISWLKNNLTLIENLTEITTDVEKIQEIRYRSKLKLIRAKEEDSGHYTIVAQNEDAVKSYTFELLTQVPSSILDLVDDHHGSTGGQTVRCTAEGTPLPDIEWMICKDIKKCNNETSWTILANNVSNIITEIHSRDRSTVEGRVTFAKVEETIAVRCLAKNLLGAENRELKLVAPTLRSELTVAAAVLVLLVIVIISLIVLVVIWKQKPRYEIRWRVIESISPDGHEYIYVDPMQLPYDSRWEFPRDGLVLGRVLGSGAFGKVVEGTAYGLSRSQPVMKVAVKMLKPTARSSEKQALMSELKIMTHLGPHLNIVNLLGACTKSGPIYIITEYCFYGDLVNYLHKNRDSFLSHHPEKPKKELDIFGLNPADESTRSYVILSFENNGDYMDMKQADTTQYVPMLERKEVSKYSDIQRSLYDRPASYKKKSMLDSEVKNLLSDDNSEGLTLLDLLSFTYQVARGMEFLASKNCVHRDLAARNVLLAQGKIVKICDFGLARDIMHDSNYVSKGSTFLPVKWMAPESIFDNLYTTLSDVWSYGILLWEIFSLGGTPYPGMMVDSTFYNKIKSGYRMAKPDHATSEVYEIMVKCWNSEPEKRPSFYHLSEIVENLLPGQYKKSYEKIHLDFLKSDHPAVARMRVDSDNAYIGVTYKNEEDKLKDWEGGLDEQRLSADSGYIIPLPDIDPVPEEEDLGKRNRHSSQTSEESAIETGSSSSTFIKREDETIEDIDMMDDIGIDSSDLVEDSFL

Target: platelet-derived growth factor receptor beta (human (endogenous in normal human Schwann cells)) (UniProt P09619)
Assay: co-IP; 100 μg total Schwann cell protein lysate (1% NP-40 buffer), pre-cleared 1 h on agarose protein G beads, immunoprecipitated with PDGFRβ antibody overnight, collected with protein G beads 2 h; GFP-control-infected and KIR2DL5A/B shRNA knock-down (sh#1-3) normal human Schwann cells

binding: binds
Substance: PDGFRα (from UniProt P16234 24-1089) (receptor)
